Article PMC10350923, “In Vitro and In Vivo Biological Activities of Dipicolinate Oxovanadium(IV) Complexes” (Journal of Medicinal Chemistry, 2023)

Experiments:
[1] = test system: HCT116-DoxR (doxorubicin-resistant colorectal carcinoma cell line); test: MTS cell viability assay, HCT116-DoxR; conditions: for SI (ligands): IC50 fibroblasts / IC50 HCT116-DoxR, free ligands; for SI HCT116-DoxR: IC50 in fibroblasts / IC50 in HCT116-DoxR; for more selective for HCT116-DoxR cells than for nontumor cells: vs normal primary fibroblasts;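 as to all read-outs here: MTS colorimetric quantification of viable cells, with loss of viability tracked as complex concentration rises, in DMEM-grown HCT116-DoxR, a line whose resistance involves P-glycoprotein efflux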
[2] = test system: HCT116 (colorectal carcinoma cell line); test: MTS cell viability assay, HCT116; type: cell-based, human; conditions: IC50 in fibroblasts / IC50 in HCT116
[3] = test system: A2780 (ovarian carcinoma cell line); test: MTS cell viability assay, A2780; type: cell-based, human; conditions: IC50 in fibroblasts / IC50 in A2780

| Structure (SMILES) | SI (ligands) [1] | SI HCT116 [2] | SI A2780 [3] | SI HCT116-DoxR [1] | more selective for HCT116-DoxR cells than for nontumor cells [1] |
| --- | --- | --- | --- | --- | --- |
| COc1ccnc2c1ccc1c(OC)ccnc12 [4,7-(CH3O)2-phen, 4,7-dimethoxy-1,10-phenanthroline] | 33.3 |  |  |  |  |
| Clc1ccnc2c1ccc1c(Cl)ccnc12 [4,7-Cl2-phen, 4,7-dichloro-1,10-phenanthroline] | 1.1 |  |  |  |  |
| c1ccc(-c2ccnc3c2ccc2c(-c4ccccc4)ccnc23)cc1 [4,7-Ph2-phen, 4,7-diphenyl-1,10-phenanthroline] | 14.7 |  |  |  |  |
| c1cnc2c(c1)ccc1cccnc12 [Phen, 1,10-phenanthroline] | >31.3 |  |  |  |  |
| c1ccc(-c2nc3ccccc3[nH]2)nc1 [Pybim, 2-(2-pyridyl)benzimidazole] | 1.8 |  |  |  |  |
| O=C1[O][V](=[O])[O]C(=O)c2cccc1n2.c1ccc(-c2ncc[nH]2)nc1 [complex 1, [VO(dipic)(pyim)]] |  | >0.4 | 1.3 |  |  |
| O=C1[O][V](=[O])[O]C(=O)c2cccc1n2.c1ccc(-c2nc3ccccc3[nH]2)nc1 [complex 2, [VO(dipic)(pybim)]] |  | >0.3 | 2.3 | 0.5 |  |
| O=C1C(=O)c2cccnc2-c2ncccc21.O=C1[O][V](=[O])[O]C(=O)c2cccc1n2 [complex 3, [VO(dipic)(phendione)]] |  |  | 3.5 | 0.6 and 0.5 |  |
| Clc1ccnc2c1ccc1c(Cl)ccnc12.O=C1[O][V](=[O])[O]C(=O)c2cccc1n2 [complex 4, [VO(dipic)(4,7-Cl2-phen)]] |  | 1.0 |  | 1.0 |  |
| COc1ccnc2c1ccc1c(OC)ccnc12.O=C1[O][V](=[O])[O]C(=O)c2cccc1n2 [complex 5, [VO(dipic)(4,7-(CH3O)2-phen)]] |  | 1.7 | 2.4 | 15.5 |  |
| O=C1[O][V](=[O])[O]C(=O)c2cccc1n2.c1ccc(-c2ccnc3c2ccc2c(-c4ccccc4)ccnc23)cc1 [complex 6, [VO(dipic)(4,7-Ph2-phen)]] |  | 4.4 |  | 20 | ~24 × |
| O=C1[O][V](=[O])[O]C(=O)c2cccc1n2.c1ccc2c(c1)Sc1ccccc1N2c1ccnc2c1ccc1c(N3c4ccccc4Sc4ccccc43)ccnc12 [complex 7, [VO(dipic)(4,7-(phtiaz)2-phen)]] |  | >0.4 |  |  |  |
| O=C1[O][V](=[O])[O]C(=O)c2cccc1n2.c1cnc2c(c1)ccc1cccnc12 [complex 8, [VO(dipic)(phen)]] |  | 2.3 |  | 6.6 | ~7 × |
| O=C1[O][V](=[O])[O]C(=O)c2cccc1n2.c1ccc(-c2ccccn2)nc1 [complex 9, [VO(dipic)(bipy)]] |  | 0.4 | 3.4 | 0.4 |  |
| O=C1[O][V](=[O])[O]C(=O)c2cccc1n2.c1c[nH]cn1.c1c[nH]cn1 [complex 10, [VO(dipic)(im)2]] |  | >0.4 | 1.4 |  |  |
| O=C1C(=O)c2cccnc2-c2ncccc21 [phendione] | 2.6 |  |  |  |  |

Values joined by “and” are separate entries in the source; they are usually repeats but may differ in a detail not shown here. Equal values may be shown once.
